Data as given in PubChem BioAssay AID1224830 (NIAID, 2016).

Assay: 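Genes whose knock-down alters the TNF-alpha reporter response to LPS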 (primary screen)
Cell system: human THP-1 monocytic leukaemia cells, TNF dual-luciferase reporter clone, PMA-differentiated to macrophage-like cells
Reagents: siRNA pool against human genes, 50 nM
Duration: LPS for 4 h, given about 3 days after siRNA transfection
Conditions: bacterial LPS (TLR4 ligand), 10 ng/ml
Detection: 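TNF firefly reporter luminescence divided by renilla, normalised to the plate median, then turned into a robust z-score for each replicate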
Direction: TNF reporter robust z-score: higher = stronger TNF reporter response to LPS
Call rule: 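Each well counts as active if its z-score is over 2.8 or under -1.5; controls are left without a call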
The whole screen tested about 18,000 reagents; this is an unselected part. In the full data, about 2,900 (16%) were called active. 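Calls are made per well; low scores hint the gene aids the LPS response, high scores that it dampens it.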 Unmarked entries are inactive. Repeated entries: four replicate wells of each siRNA pool.

What is on record for OR4D9 [SID315464628]?
TNF reporter robust z-score: 1.39

For OR4D9 [SID315464628], what was measured?
TNF reporter robust z-score: 0.47

Which result is listed for OR4D9 [SID315464628]?
TNF reporter robust z-score: 0.76

What is on record for OR4D9 [SID315464628]?
TNF reporter robust z-score: 1.89

With DPH3 [SID315463846], how do the results read?
TNF reporter robust z-score: 0.3

What did the screen give for DPH3 [SID315463846]?
TNF reporter robust z-score: 0.33

Which result is listed for DPH3 [SID315463846]?
TNF reporter robust z-score: 0.08

With DPH3 [SID315463846], how do the results read?
TNF reporter robust z-score: -0.93

What is on record for OSBPL6 [SID315461262]?
TNF reporter robust z-score: 0.53

For OSBPL6 [SID315461262], what was measured?
TNF reporter robust z-score: 1.07

How did the screen score OSBPL6 [SID315461262]?
TNF reporter robust z-score: 0.99

With OSBPL6 [SID315461262], what was measured?
TNF reporter robust z-score: 1.7

Which result is listed for CBLIF [SID315448895]?
TNF reporter robust z-score: 0.8

For CBLIF [SID315448895], how do the results read?
TNF reporter robust z-score: 0.12

What did the screen give for CBLIF [SID315448895]?
TNF reporter robust z-score: 0.51

With CBLIF [SID315448895], what does the deposit list?
TNF reporter robust z-score: 1.78

For SUGP1 [SID315458587], how do the results read?
TNF reporter robust z-score: 0.27

With SUGP1 [SID315458587], what was measured?
TNF reporter robust z-score: -0.36

With SUGP1 [SID315458587], what was measured?
TNF reporter robust z-score: -1.34

With SUGP1 [SID315458587], what does the deposit list?
TNF reporter robust z-score: 0.16
